# Results: the supplement of paper PMC12889115
# The list shows a part of the results. These are raw signals, not scaled to a control.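 First-pass screen: polymyxin B was added at a level that permeabilizes the Salmonella outer membrane while sparing the inner membrane. DMSO wells, with and without polymyxin B, defined maximum growth. Because plates differed from one another, each plate's data were ranked separately and the compounds with the lowest OD600 were carried forward as hits.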
# Test system: Salmonella enterica serovar Typhimurium SL1344
# Experiment: bacterial growth OD600 after 18 h with compound and polymyxin B; higher = more bacterial growth (less inhibition)
# Settings: 50 µM, Mueller-Hinton broth
Structure (SMILES),bacterial growth OD600 (polymyxin B 1 µg/mL),bacterial growth OD600 (polymyxin B 0.75 µg/mL)
O=C1N(CC2CCC2)CCCC1(O)CN1CCOc2ccc(Cl)cc2C1 (configuration not stated),0.747,–
COCC(=O)N1CCC(n2c(C3CCCO3)nc3cc(C(F)(F)F)ccc32)CC1 (configuration not stated),–,0.82
O=C(c1ccc(Cl)cc1OC1CCN(Cc2ccco2)CC1)N1CCCCC1,0.929,–
COc1ccc2c(C)nc(N3CCC(C(=O)NCC4CC5C=CC4C54CC4)CC3)nc2c1 (configuration not stated),–,0.618
COCC(=O)Nc1cc(C(=O)N(C)CC2Cc3ccccc3O2)cc2ncn(CCc3ccccc3)c12 (configuration not stated),–,0.917
CSc1ccccc1C(=O)NCc1nc(NCCCc2ccccc2)c2ccccc2n1,–,0.863
COc1cccc(-c2nc3ccc(C(=O)N(C)CC(O)c4ccccc4)cc3o2)c1 (configuration not stated),0.749,–
O=C(c1ccco1)N1CCCN(c2nc3nonc3nc2N2CCCCCC2)CC1,0.877,–
O=C1N(c2ccccc2)C[C@@H]2C[C@@H](c3ccc(C#CCCO)cc3)N3CCC[C@@]123,–,0.87
O=C1CCC(CCC(=O)N2CCCC(OCc3ccccc3)C2)(Cc2cccs2)N1 (configuration not stated),–,1.01
O=C(NC1CC(=O)N(CCCc2ccccc2)C1)c1cscn1 (configuration not stated),0.919,–
Cc1nc2ccccc2n1Cc1cc(C(=O)N(C)CC2CCCN2C)no1 (configuration not stated),1.1,–
CCOC(=O)C1(Cc2ccccc2)CCCN(Cc2ncc[nH]2)C1 (configuration not stated),1.24,–
O=C(CCC1(Cc2ccc(F)cc2)CCC(=O)N1)NCc1ccsc1 (configuration not stated),–,0.814
CN(CCc1ccccc1)C(=O)c1nc2sccn2c1CN1CCN(CC2CC2)CC1,–,0.816
CC(=O)c1ccc(C(=O)N2CCCC(CCC(=O)Nc3ccc(F)cc3C)C2)s1 (configuration not stated),0.961,–

# Two successive records from above, quoted:
Structure (SMILES),bacterial growth OD600 (polymyxin B 1 µg/mL),bacterial growth OD600 (polymyxin B 0.75 µg/mL)
O=C1N(c2ccccc2)C[C@@H]2C[C@@H](c3ccc(C#CCCO)cc3)N3CCC[C@@]123,–,0.87
O=C1CCC(CCC(=O)N2CCCC(OCc3ccccc3)C2)(Cc2cccs2)N1 (configuration not stated),–,1.01

# Continuation.

Structure (SMILES),bacterial growth OD600 (polymyxin B 1 µg/mL),bacterial growth OD600 (polymyxin B 0.75 µg/mL)
O=C(Nc1ccc(Oc2ccccc2)nc1)C1CCN(C(=O)[C@@H]2C[C@@H]3C=C[C@H]2C3)CC1,0.956,–
C#CCN(CC=C)Cc1nc(-c2ccc(F)c(OC)c2)oc1C,0.82,–
COC(=O)c1ccc(-c2noc(CN3CCC(C(O)Cc4ccccc4)CC3)n2)cc1 (configuration not stated),0.801,–
CCC(C)C(=O)C(=O)NCC1Cc2cc(-c3ccnc(SC)n3)cc(Cl)c2O1 (configuration not stated),–,0.563
COc1cc(OC)c(CN2CCCC(C(=O)c3cccc(Cl)c3)C2)c(OC)c1 (configuration not stated),0.002,–
CC(=O)N1CCC(C(=O)N2CCCC(Nc3ccccc3)C2)CC1 (configuration not stated),0.899,–
CC(=O)NCc1cccnc1N1CCN(c2ccccc2C)CC1,0.664,–
COC(=O)c1cc(CNC(=O)Cc2cc(OC)ccc2OC)cc(NC(=O)Cc2ccccc2)c1,–,0.912
COc1ccc(CCN2CC(C(=O)NCc3cc(C)on3)CCC2=O)cc1 (configuration not stated),0.867,–
CCOC(=O)C1(Cc2ccc(F)cc2)CCCN(C(=O)c2ccc(C)nc2O)C1 (configuration not stated),–,0.885
COc1cccc(CCNC(=O)c2ccc(OC3CCN(C(=O)C4CC4)CC3)cc2)c1,1.05,–
Cc1oc(-c2ccccc2NC(=O)c2ccccn2)nc1CNC(=O)CCc1nc2ccccc2s1,–,0.822
CC(C)c1noc(-c2ccc(NCCN3CCOC3=O)nc2)n1,1.01,–
CCN(CC)CC(O)COc1cc(CNC2(c3ccccc3)CC2)ccc1OC (configuration not stated),–,0.893
COc1ccccc1Oc1ncccc1CNC(=O)Cc1ccccn1,0.91,–
O=C(NCC[C@@H]1C[C@@H]2C=C[C@H]1C2)c1coc(COc2ccc3c(c2)OCO3)n1,–,0.769
